In paper PMC7819943, “Rice protein-binding microarrays: a tool to detect cis-acting elements near promoter regions in rice”:
The list shows a part of the results.

Protein sequences, listed by entry. Tags and fused reporters are not part of them.
UniProt Q0JBA9, entry or part of it: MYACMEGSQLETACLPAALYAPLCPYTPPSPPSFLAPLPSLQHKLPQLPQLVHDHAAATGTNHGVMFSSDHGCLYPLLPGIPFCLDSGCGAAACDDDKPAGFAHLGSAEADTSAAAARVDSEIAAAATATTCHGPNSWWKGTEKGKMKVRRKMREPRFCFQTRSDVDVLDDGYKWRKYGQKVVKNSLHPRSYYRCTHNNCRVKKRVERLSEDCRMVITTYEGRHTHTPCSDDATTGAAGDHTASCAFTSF

These sequences were tested against OsWRKY34 (Oryza sativa, UniProt Q0JBA9 1-250) (assay: protein-binding microarray (RPBM); PBS, 2% BSA, 51.3 ng/ul salmon testes DNA, 50 uM zinc acetate, 200 nM TF, 25 C, 1 h; high values mean tight binding). Details: protein: recombinant; tags: N-terminal polyhistidine and DsRed monomer fusion (pET32a); label: CyDye5-dUTP incorporated in the synthesized complementary strand; 3' TTTTT single-stranded linker to array surface; dsDNA, one strand shown.
Summary of the method: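 The binding signal is fluorescence intensity per array feature (arbitrary units). Readings came from an Axon 4000B scanner after a washed, 2% BSA-blocked, double-stranded custom Agilent array had been incubated for 1 h at 25 °C with 200 nM protein and 50 µM zinc acetate. The protein was a Ni–NTA-purified transcription factor fused N-terminally to polyhistidine and DsRed, expressed in E. coli BL21-CodonPlus.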
In the case of “GAATCCCAACCATCCATCTGCATCCGCATTGCCCTAATCCCGGAGTCACCTAGTGCAG”, the binding signal is reported as 12000 fluorescence intensity (a.u.).
For “GGAGTGTGGCGGAGCGGGAGTTCGCGGGCGGACGGCGGGGCGGAGTCACCTAGTGCAG”, the binding signal was 11700 fluorescence intensity (a.u.).
“TGAGTTTAGGGGTATATATTTCTGGTTTTATGGTTAAGGGCGGAGTCACCTAGTGCAG” was tested, and the binding signal was 12500 fluorescence intensity (a.u.).
In the case of “TGTGGCATTCGCTAAAGTTTCAAGCGTTATTTTGTTTTGGCGGAGTCACCTAGTGCAG”, the binding signal is reported as 8320 fluorescence intensity (a.u.).
In the case of “CCCTTTCTTACCGCATGTACGTGCCCGGCTGCTTCCTATACGGAGTCACCTAGTGCAG”, the binding signal is reported as 14600 fluorescence intensity (a.u.).
In the case of “GCGCGATCATCTCCCACTCCCACCGTTGTTCCTCCTCAACCGGAGTCACCTAGTGCAG”, the binding signal is reported as 9320 fluorescence intensity (a.u.).
“CTTTCTTTTTCTACACCCTCATGCAACAAACTTTCTATTACGGAGTCACCTAGTGCAG” was tested, and the binding signal was 8260 fluorescence intensity (a.u.).
In the case of “CATACTCTGATATACCTGAAGGACTTTCTACCGTCATTATCGGAGTCACCTAGTGCAG”, the binding signal is reported as 9750 fluorescence intensity (a.u.).
With “GCCATTTTTCTTGGCGCCAAGCCCGGCTTTCCCGCGGCGCCGGAGTCACCTAGTGCAG” the binding signal was 10300 fluorescence intensity (a.u.).
For “GGATTCTCTGTTTTTTTTTGGGTACTTCTGATTGATTCAACGGAGTCACCTAGTGCAG”, the binding signal was 9170 fluorescence intensity (a.u.).
In the case of “ATCTACTCCACCTGGCATTCCTACATTTTTTTTCAATTGACGGAGTCACCTAGTGCAG”, the binding signal is reported as 8680 fluorescence intensity (a.u.).
For “TTTGCAGGGGCTGGGCATGATCACTGTCTCGTCGGTTCTTCGGAGTCACCTAGTGCAG”, the binding signal was 12100 fluorescence intensity (a.u.).
“GCACATTCTCACTGATATTATTGAATTTCCTACTCAGTACCGGAGTCACCTAGTGCAG” was tested, and the binding signal was 12600 fluorescence intensity (a.u.).
For “GATTGGGCGATTTCATCTTCTTCTTGGCCTTGAGGCGGTACGGAGTCACCTAGTGCAG”, the binding signal was 10000 fluorescence intensity (a.u.).
With “GATTTGTGCGGTTTTTATTATTCTTCTCGTTCAATTTCTCCGGAGTCACCTAGTGCAG” the binding signal was 9170 fluorescence intensity (a.u.).
With “TATGTTTTCTGTCAACTGCTCGTCTTTTTCGTGGCAAGATCGGAGTCACCTAGTGCAG” the binding signal was 11700 fluorescence intensity (a.u.).
For “ATTTCTAAATATTTGACGTCGTTGACTTTTTTAAACATGTCGGAGTCACCTAGTGCAG”, the binding signal was 26800 fluorescence intensity (a.u.).
In the case of “CTCCGACCGCATGCTCTCCTCCCTGAACCTCGCACGTATACGGAGTCACCTAGTGCAG”, the binding signal is reported as 10100 fluorescence intensity (a.u.).
“CAGTAGAGGTGTGGTGGTGATATTGCAGGCGGCGACCATGCGGAGTCACCTAGTGCAG” was tested, and the binding signal was 8840 fluorescence intensity (a.u.).
For “CAGCCCGTTAAAATTAGGCCTTCCTCTATCTTCCTTTTTCCGGAGTCACCTAGTGCAG”, the binding signal was 8530 fluorescence intensity (a.u.).
For “CTTCGGTTTCGTAATTTTTCTCTCTTGTTCGTTCTCCATGCGGAGTCACCTAGTGCAG”, the binding signal was 8400 fluorescence intensity (a.u.).
With “CCATCTTCGCCGCCCGCGCCTCTCGCGCCGAACTAGCCTCCGGAGTCACCTAGTGCAG” the binding signal was 13100 fluorescence intensity (a.u.).
With “CAATTCTCCATGCTCATCCCACCAAAATTCTCATATCTCTCGGAGTCACCTAGTGCAG” the binding signal was 10600 fluorescence intensity (a.u.).
With “TGTGCTCTTCTTGCCGCCATCTTTTGACCTCGTTGCAATGCGGAGTCACCTAGTGCAG” the binding signal was 8040 fluorescence intensity (a.u.).
With “GTGGTTTGAGGCGTCCGATTTTTTTTCGACCGCTCGAGCGCGGAGTCACCTAGTGCAG” the binding signal was 10700 fluorescence intensity (a.u.).
In the case of “AATTCACCATGTTGGAACTTGCACAGGTTTGTACACAATTCGGAGTCACCTAGTGCAG”, the binding signal is reported as 8390 fluorescence intensity (a.u.).
“AGAAAATACACGGTCAACTAACGGTCAACTGACGGGAGGGCGGAGTCACCTAGTGCAG” was tested, and the binding signal was 8790 fluorescence intensity (a.u.).
With “TCGCCTACACACGCCGTCGTCGTCTTCTTTCCTGGCAATGCGGAGTCACCTAGTGCAG” the binding signal was 8870 fluorescence intensity (a.u.).
For “ACACCCCAACCCGGCAACGGCAACCCGACCCAACCTGCGCCGGAGTCACCTAGTGCAG”, the binding signal was 9230 fluorescence intensity (a.u.).
For “CGTGGAGAGGGGAGGGGAGGGAGAGGGAGACCGGGCGCATCGGAGTCACCTAGTGCAG”, the binding signal was 8560 fluorescence intensity (a.u.).
With “GCTGAATTCTCACTGCTGTTCTTCACCTCCTCATACCTCGCGGAGTCACCTAGTGCAG” the binding signal was 8980 fluorescence intensity (a.u.).
For “CCTCTACGCGCGGCCAACGCCGCCGCCGCCGCCGCCGCTCCGGAGTCACCTAGTGCAG”, the binding signal was 8370 fluorescence intensity (a.u.).
“ATGTTTGACCATTCGTCTTATTCAAAAAATTTACGTAATTCGGAGTCACCTAGTGCAG” was tested, and the binding signal was 8060 fluorescence intensity (a.u.).
For “CAGATCTGTAAAGTTAGCGTTCTCTATCTCTCTCTCTTTTCGGAGTCACCTAGTGCAG”, the binding signal was 11800 fluorescence intensity (a.u.).
“TGTTCTCTTTTTTAATACTTCCTCTGTTCCATATTATATCCGGAGTCACCTAGTGCAG” was tested, and the binding signal was 9620 fluorescence intensity (a.u.).
In the case of “TTTTCCAACTTACCTCCTTCATTTTCCACGCGCACATTTTCGGAGTCACCTAGTGCAG”, the binding signal is reported as 9420 fluorescence intensity (a.u.).
In the case of “TCGTTTACCACCTATCCAACGCAGGTCGCAATAAAAACCACGGAGTCACCTAGTGCAG”, the binding signal is reported as 8300 fluorescence intensity (a.u.).
For “GCTCTTCCTATCCTACTGCCAACTCCCGCGATGACCGCGCCGGAGTCACCTAGTGCAG”, the binding signal was 8890 fluorescence intensity (a.u.).
In the case of “ATTTGTTCCCACGACCTCTATTTTACTGAAATAACATGTTCGGAGTCACCTAGTGCAG”, the binding signal is reported as 10000 fluorescence intensity (a.u.).
For “TCCTGTGGCCTATCCGGTCTCCTTGGCCTCCGCGAGGTTGCGGAGTCACCTAGTGCAG”, the binding signal was 10400 fluorescence intensity (a.u.).
In the case of “GTGACCCAACATTCAGATTCATCTTTTTTTTTCACCTTCTCGGAGTCACCTAGTGCAG”, the binding signal is reported as 11300 fluorescence intensity (a.u.).
“ATGTTAGCCTCTTACCTTGCACGCAACTTGTTTGTCTACACGGAGTCACCTAGTGCAG” was tested, and the binding signal was 10900 fluorescence intensity (a.u.).
